Assay results as given in the supplement of paper PMC8728848.
The list shows a part of the results.

What was measured:
Experiment in all cases: glycan array binding signal (z-score within array); higher = stronger binding
Conditions in all cases: glycan notation: IUPAC condensed, linker removed
[1] = target: Gal(b1-4)GlcNAc(b1-3)Gal(b1-4)GlcNAc(b1-3)Gal(b1-4)GlcNAc(b1-3)Gal(b1-4)GlcNAc(b1-2)Man(a1-3)[Gal(b1-4)GlcNAc(b1-3)Gal(b1-4)GlcNAc(b1-3)Gal(b1-4)GlcNAc(b1-3)Gal(b1-4)GlcNAc(b1-2)Man(a1-6)]Man(b1-4)GlcNAc(b1-4)GlcNAc
Method in brief: (§1)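 Arrays were curated from the Consortium for Functional Glycomics database, 3228 in total, and kept only where the protein sequence was available. Binding is expressed as a within-array Z-score. This score was averaged across arrays of the same protein sequence at different concentrations or buffers and across linkers, and negative values can be read as non-binding.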

[2] = target: Gal(b1-4)GlcNAc(b1-3)Gal(b1-4)GlcNAc(b1-3)Gal(b1-4)GlcNAc(b1-3)Gal(b1-4)GlcNAc(b1-2)Man(a1-3)[Gal(b1-4)GlcNAc(b1-3)Gal(b1-4)GlcNAc(b1-3)Gal(b1-4)GlcNAc(b1-3)Gal(b1-4)GlcNAc(b1-2)Man(a1-6)]Man(b1-4)GlcNAc(b1-4)[Fuc(a1-6)]GlcNAc
Method in brief: as §1

[3] = target: Gal(b1-4)GlcNAc(b1-3)Gal(b1-4)GlcNAc(b1-3)Gal(b1-4)GlcNAc(b1-3)Gal(b1-4)GlcNAc(b1-2)[Gal(b1-4)GlcNAc(b1-3)Gal(b1-4)GlcNAc(b1-3)Gal(b1-4)GlcNAc(b1-3)Gal(b1-4)GlcNAc(b1-6)]Man(a1-6)[Gal(b1-4)GlcNAc(b1-3)Gal(b1-4)GlcNAc(b1-3)Gal(b1-4)GlcNAc(b1-3)Gal(b1-4)GlcNAc(b1-2)Man(a1-3)]Man(b1-4)GlcNAc(b1-4)[Fuc(a1-6)]GlcNAc
Method in brief: as §1

[4] = target: Gal(b1-4)GlcNAc(b1-3)Gal(b1-4)GlcNAc(b1-3)Gal(b1-4)GlcNAc(b1-3)Gal(b1-4)GlcNAc(b1-3)Gal(b1-4)GlcNAc(b1-2)Man(a1-3)[Gal(b1-4)GlcNAc(b1-3)Gal(b1-4)GlcNAc(b1-3)Gal(b1-4)GlcNAc(b1-3)Gal(b1-4)GlcNAc(b1-3)Gal(b1-4)GlcNAc(b1-2)Man(a1-6)]Man(b1-4)GlcNAc(b1-4)GlcNAc
Method in brief: as §1

[5] = target: Gal(b1-4)GlcNAc(b1-3)Gal(b1-4)GlcNAc(b1-3)Gal(b1-4)GlcNAc(b1-3)Gal(b1-4)GlcNAc(b1-3)Gal(b1-4)GlcNAc(b1-2)Man(a1-3)[Gal(b1-4)GlcNAc(b1-3)Gal(b1-4)GlcNAc(b1-3)Gal(b1-4)GlcNAc(b1-3)Gal(b1-4)GlcNAc(b1-3)Gal(b1-4)GlcNAc(b1-2)Man(a1-6)]Man(b1-4)GlcNAc(b1-4)[Fuc(a1-6)]GlcNAc
Method in brief: as §1

[6] = target: Gal(b1-4)GlcNAc(b1-3)Gal(b1-4)GlcNAc(b1-3)Gal(b1-4)GlcNAc(b1-3)Gal(b1-4)GlcNAc(b1-3)Gal(b1-4)GlcNAc(b1-2)[Gal(b1-4)GlcNAc(b1-3)Gal(b1-4)GlcNAc(b1-3)Gal(b1-4)GlcNAc(b1-3)Gal(b1-4)GlcNAc(b1-3)Gal(b1-4)GlcNAc(b1-6)]Man(a1-6)[Gal(b1-4)GlcNAc(b1-3)Gal(b1-4)GlcNAc(b1-3)Gal(b1-4)GlcNAc(b1-3)Gal(b1-4)GlcNAc(b1-3)Gal(b1-4)GlcNAc(b1-2)Man(a1-3)]Man(b1-4)GlcNAc(b1-4)[Fuc(a1-6)]GlcNAc
Method in brief: as §1

[7] = target: Gal(b1-4)GlcNAc(b1-3)Gal(b1-4)GlcNAc(b1-3)Gal(b1-4)GlcNAc(b1-3)Gal(b1-4)GlcNAc(b1-3)Gal(b1-4)GlcNAc(b1-3)Gal(b1-4)GlcNAc(b1-2)Man(a1-3)[Gal(b1-4)GlcNAc(b1-3)Gal(b1-4)GlcNAc(b1-3)Gal(b1-4)GlcNAc(b1-3)Gal(b1-4)GlcNAc(b1-3)Gal(b1-4)GlcNAc(b1-3)Gal(b1-4)GlcNAc(b1-2)Man(a1-6)]Man(b1-4)GlcNAc(b1-4)GlcNAc
Method in brief: as §1

[8] = target: Gal(b1-4)GlcNAc(b1-3)Gal(b1-4)GlcNAc(b1-3)GalNAc
Method in brief: as §1

[9] = target: Gal(b1-4)GlcNAc(b1-3)Gal(b1-4)GlcNAc(b1-3)[Gal(b1-4)GlcNAc(b1-3)Gal(b1-4)GlcNAc(b1-6)]GalNAc
Method in brief: as §1

[10] = target: Gal(b1-4)GlcNAc(b1-3)Gal(b1-4)GlcNAc(b1-6)[Gal(b1-3)]GalNAc
Method in brief: as §1

[11] = target: Gal(b1-4)GlcNAc(b1-3)Gal(b1-4)[Fuc(a1-3)]GlcNAc(b1-3)Gal(b1-4)[Fuc(a1-3)]GlcNAc
Method in brief: as §1

[12] = target: Gal(b1-4)GlcNAc(b1-3)GalNAc
Method in brief: as §1

[13] = target: Gal(b1-4)GlcNAc(b1-3)[Fuc(a1-3)GlcNAc(b1-6)]Gal(b1-4)Glc
Method in brief: as §1

[14] = target: Gal(b1-4)GlcNAc(b1-3)[Gal(b1-4)GlcNAc(b1-6)]Gal(b1-4)GlcNAc
Method in brief: as §1

[15] = target: Gal(b1-4)GlcNAc(b1-3)[GlcNAc(b1-6)]Gal(b1-4)GlcNAc
Method in brief: as §1

[16] = target: Gal(b1-4)GlcNAc(b1-6)Gal(b1-4)GlcNAc
Method in brief: as §1

[17] = target: Gal(b1-4)GlcNAc(b1-6)GalNAc
Method in brief: as §1

[18] = target: Gal(b1-4)GlcNAc(b1-6)[Gal(b1-3)]GalNAc
Method in brief: as §1

[19] = target: Gal(b1-4)GlcNAc(b1-6)[Gal(b1-4)GlcNAc(b1-3)]GalNAc
Method in brief: as §1

[20] = target: Gal(b1-4)GlcNAc6P
Method in brief: as §1

[21] = target: Gal(b1-6)Gal
Method in brief: as §1

[22] = target: Gal3S(b1-3)GalNAc
Method in brief: as §1

[23] = target: Gal3S(b1-3)GlcNAc
Method in brief: as §1

B1: MUB70 (Lactobacillus reuteri) (protein)
chain: CVHVQYIDGETDQMLRQDDLDGYTDETIPYSTAEGIKKFEGDGYELFKDNFPAGEKFDNDDTNDQFYTVIF
glycan array binding signal (z-score) [1]: 0.176 | glycan array binding signal (z-score) [2]: 0.836 | glycan array binding signal (z-score) [3]: 0.322 | glycan array binding signal (z-score) [4]: 0.479 | glycan array binding signal (z-score) [5]: 2.07 | glycan array binding signal (z-score) [6]: -0.162 | glycan array binding signal (z-score) [7]: 2.37 | glycan array binding signal (z-score) [8]: 0.453 | glycan array binding signal (z-score) [9]: 0.501 | glycan array binding signal (z-score) [10]: 0.295 | glycan array binding signal (z-score) [11]: -0.485 | glycan array binding signal (z-score) [12]: 0.845 | glycan array binding signal (z-score) [13]: 0.771 | glycan array binding signal (z-score) [14]: 0.029 | glycan array binding signal (z-score) [15]: -0.071 | glycan array binding signal (z-score) [16]: 0.301 | glycan array binding signal (z-score) [17]: -0.577 | glycan array binding signal (z-score) [18]: -0.067 | glycan array binding signal (z-score) [19]: -0.158 | glycan array binding signal (z-score) [20]: 0.022 | glycan array binding signal (z-score) [21]: -0.211 | glycan array binding signal (z-score) [22]: 0.144 | glycan array binding signal (z-score) [23]: -0.351
